# In PubChem BioAssay AID1259415 (National Center for Advancing Translational Sciences (NCATS), 2018):
# Values joined by “and” are separate entries in the source; they are usually repeats but may differ in a detail not shown here. Equal entries are not always repeated. Screen size: about 410,000 compounds; about 18,000 (4.4%) were called active. The shares of active, inactive and inconclusive entries below differ from those in the screen. Cut-off read from the data, not from the text of the source: active = activity change below about -60%; inconclusive = no clear call, values can overlap the other calls; inactive = above about -39%.
# Experiment: qHTS Assay for inhibitors of the human cytomegalovirus (HCMV)
# Details: HFF cells, HCMV-luciferase reporter, 72 h; at 57.5 µM; active compounds read low
# Outline: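 Cell-based, HFFs, 1000 cells/well, 16 h 37C; cpds in DMSO + HCMV-luc, MOI 1 PFU/cell; 72 h 37C; OneGlo luminescence after 5 min RT; norm. to buffer vs Salinomycin 10uM.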
# % is set by controls: 0 for no effect and ±100 for the full control effect.
row,Structure (SMILES),"activity change, negative = inhibition"
1,CC/C(=C(/c1ccccc1)c1ccc(OCC[N+](C)(C)C)cc1)c1ccccc1,inconclusive: -50.6%
2,Fc1ccc(Nc2ncnc3onc(-c4ccc(Cl)cc4)c23)cc1Cl,inconclusive: -41.6%
3,COc1ccc(S(=O)(=O)Nc2ccc(CC#N)cc2)cc1,inactive: -20.8%
4,Cc1nc(CNC(=O)CC2C(=O)NCCN2Cc2cccc(Oc3ccccc3)c2)cs1 (stereo unspecified),inconclusive: -45.5%
5,CCCS(=O)(=O)NC(=O)C1(C)CCCN(C(=O)c2cc(C)n(C(C)(C)C)n2)C1 (stereo unspecified),active: -64.5%
6,CC1=CC(=C(C#N)c2nc3ccccc3s2)C=C(C)N1c1ccc(F)cc1F,active: -64.6%
7,COc1ccc(NC(=S)NCCCCCC(=O)C[N+](=O)[O-])cc1,inactive: -20.2%
8,O=C(NCc1ccccc1CN1CCCC1)c1cccc(S(=O)(=O)Nc2ccc(F)cc2)c1,inactive: 56.8%
9,C=CCNC(=S)Nc1sc2c(c1C(=O)OCC)CC(C)(CC)OC2 (stereo unspecified),inactive: -30.5%
10,O=C1c2ccccc2NC(c2cccc(O)c2)N1O (stereo unspecified),inactive: 123%
11,COc1ccc(C2=NNC(=Nc3cc(S(=O)(=O)N(C)C)ccc3C)SC2)c(OC)c1,active: -97.5%
12,CCOC(=O)C1=C[C@@H](c2ccccc2)N(S(=O)(=O)c2ccc(C)cc2)[C@H]1c1cccc(Cl)c1,inconclusive: -55.9%
13,CN1CCN(C(=O)Nc2ccc3c(c2)N(C)C(=O)c2ccccc2S3)CC1,inconclusive: -55.6%
14,Cc1c(C#N)c2ncnc(-c3ccccc3)c2n1-c1ccccc1,inconclusive: -41.8%
15,COC(=O)C12OCC34C(CC5C(C)=C(O)C(=O)CC5(C)C3C(O)C1O)OC(=O)C(OC(=O)/C=C(\C)C(C)C)C24 (stereo unspecified),active: -98.4%
16,COc1cccc(CNCc2cccnc2)c1OCc1ccccc1,inconclusive: -42.7%
17,CNC(=O)C(=O)N/N=C/c1cccnc1,inactive: 3.39%
18,Cc1nnc(NC(=O)CSc2nc(C(C)C)nc3ccccc23)s1,inconclusive: -40.7%
19,O=S(=O)(Cc1ccccc1)N1CCN(Cc2ccc(Br)cc2)CC1,inconclusive: -42.1%
20,O=C(NC(=O)N1CCSCC1)c1c(Cl)cccc1Cl,inactive: 7.68%
21,CCSc1nc2cc(OC)c(OC)cc2c(=O)n1CCc1ccccc1,inconclusive: -50.6%
22,CC1(c2ccccc2)CC(C)(C)N(C(=O)c2cccc(Cl)c2)c2ccccc21 (stereo unspecified),active: -71.8%

# A draw from above in order of count of non-hydrogen atoms, smallest number first.
row,Structure (SMILES),"activity change, negative = inhibition"
17,CNC(=O)C(=O)N/N=C/c1cccnc1,inactive: 3.39%
16,COc1cccc(CNCc2cccnc2)c1OCc1ccccc1,inconclusive: -42.7%
12,CCOC(=O)C1=C[C@@H](c2ccccc2)N(S(=O)(=O)c2ccc(C)cc2)[C@H]1c1cccc(Cl)c1,inconclusive: -55.9%

# The results go on.

row,Structure (SMILES),"activity change, negative = inhibition"
1,O=C(Nc1ncc([N+](=O)[O-])s1)c1ccc2c(c1)OCO2,active: -92.9%
2,Cc1cc(=O)[nH]c(SCC(=O)c2ccc(F)c(C)c2)n1,inconclusive: -45.9%
3,COc1ccc(C(CCNCc2ccccc2F)c2ccc(F)cc2)cc1 (stereo unspecified),active: -62.4%
4,CCc1ccc2c(c1)C(c1ccc([N+](=O)[O-])cc1)=NNC(c1ccc(C)cc1)=N2,inactive: 36%
5,CC1CCN(S(=O)(=O)c2ccc(C(=O)Nc3ncccc3O)cc2)CC1,inconclusive: -49.7%
6,COc1ccc(Nc2ncnc3c2cnn3-c2ccc(C)cc2)cc1Cl,inconclusive: -45.3%
7,COc1ccc(-n2c(O)c(C=Nc3ccccc3)c3ccccc3c2=O)cc1,inconclusive: -52.3%
8,O=C1CN(C(=O)COc2ccccc2Cl)c2ccccc2N1,inconclusive: -52.6%
9,CCCCN1C(=O)c2ccc(C(=O)NCCN3C(=O)S/C(=C\c4cccnc4)C3=O)cc2C1=O,inconclusive: -45.7%
10,COCCNC(=S)NN=C1CCC(c2ccccc2)CC1 (stereo unspecified),inconclusive: -42.1%
11,O=C(Nc1ccccc1N1CCOCC1)c1ccc(Cl)c(S(=O)(=O)NCc2ccco2)c1,inconclusive: -45.1%
12,O=C(CC1(O)C(=O)N(C/C=C/c2ccccc2)c2ccccc21)c1ccccn1 (stereo unspecified),active: -70.7%
13,COc1ccc(C)cc1NC(=O)C(Cc1ccccc1)NS(=O)(=O)c1cccs1 (stereo unspecified),inactive: -13.2%
14,Cc1cccc2c(C(=O)N3CCN(C(=O)c4ccco4)CC3)cc(-c3cccc(Br)c3)nc12,active: -64%
15,COc1cc(-c2nnc(NC(=O)CS(=O)(=O)c3ccc(C)cc3)o2)cc(OC)c1OC,inactive: 9.15%
16,OC(CNCC(c1ccc(Cl)cc1Cl)c1c[nH]c2ccccc12)c1ccccc1 (stereo unspecified),active: -108%
17,CCNC(=S)N1CCN(Cc2ccccc2)CC1,inconclusive: -49.5%
18,COc1ccc(N2CCN(C(=O)Cn3nnc(-c4cccs4)n3)CC2)cc1,inconclusive: -49.4%
19,Cc1cc(C)nc(SCc2ccc3nonc3c2)n1,inconclusive: -40.1%
20,COc1ccccc1Nc1nn2c(=O)c3ccc(C(=O)NCCC4=CCCCC4)cc3nc2s1,active: -106%
21,c1ccc(-c2csc(NNC3=NCCCCC3)n2)cc1,inactive: -2.99%
22,COc1ccc(/C(C)=N/NS(=O)(=O)c2cc(C)ccc2C)c(OC)c1,inconclusive: -55.1%

row,Structure (SMILES),"activity change, negative = inhibition"
1,CN(c1cccc(NS(=O)(=O)c2cccc([N+](=O)[O-])c2)c1)S(C)(=O)=O,inconclusive: -46.4%
2,Cc1cccc(C)c1NC(=O)Cn1nnc(C(=O)Nc2ccc(F)cc2F)c1N,active: -64.6%
3,CN(C)c1ccc(/C=N/NC(=O)c2cnc3ccccc3c2)cc1,inconclusive: -53%
4,O=C(NCc1ccccc1)NS(=O)(=O)c1ccccc1Cl,inconclusive: -42.1%
5,COc1ccccc1NC(=O)c1oc2ccccc2c1NC(=O)C1CCCCC1,inactive: 2.81%
6,Cc1ccccc1-c1cc2nc(-c3ccc([N+](=O)[O-])cc3)cc(=O)n2[nH]1,inactive: -0.561%
7,NC(N)=Nc1nc(-c2ccccc2)c2ccccc2n1,active: -94.8%
8,Cc1ccc(C)c(N(C(=O)Cc2cccs2)C(C(=O)NC2CCCC2)c2ccc(C)o2)c1 (stereo unspecified),inconclusive: -56.3%
9,CCn1c(SCC(=O)Nc2cc(NC(C)=O)ccc2OC)nnc1-c1ccccn1,inconclusive: -44.8%
10,CCNC(=S)NNC(=O)c1ccc(OC)cc1,inactive: 3.68%
11,CCOc1cccc(C(=O)Nc2nccs2)c1,inactive: 74.3%
12,C=CCn1c(=O)c(C(=O)NCCc2ccccc2)c(O)c2ccccc21,inconclusive: -45.1%
13,COc1cccc(-c2noc(COc3ccccc3Cl)n2)c1,inactive: 42.8%
14,CN(C)C(=O)Oc1cccc(-c2cn3cc(Cl)ccc3n2)c1,inactive: -3.47%
15,CC(C)Oc1ccc(CCN=C(N)N=C(N)N)cc1Cl,inconclusive: -54.6%
16,CN(C)c1ccc(/C=C(/C(=O)c2ccc(Cl)cc2Cl)n2cncn2)cc1,inactive: -36.7%
17,O=C(CCNS(=O)(=O)c1ccc(Br)s1)N1CCN(c2ccccc2)CC1,inconclusive: -46.6%
18,COc1cc2c(cc1OC)C(c1ccc(-c3ccc(Cl)cc3Cl)o1)=NCC2,inconclusive: -54.1%
19,CCCCCCCNC(=O)CN1C(=O)CSc2ccc(S(=O)(=O)N3CCOCC3)cc21,inconclusive: 0%
20,O=C(N/N=C/c1ccsc1)c1ccc2c(c1)OCO2,inactive: 46.6%
21,Cc1cccc(N2CCN(S(=O)(=O)c3ccc4c(c3)CC(=O)N4C)CC2)c1C,inactive: -0.343% and inactive: -2.5%
22,CC(=O)N[C@@H](Cc1c[nH]c2ccccc12)C(=O)OCC(=O)Nc1ccc(S(=O)(=O)N(C)C)cc1,inconclusive: -48.9%

# Not a retest: 22 of the compounds above.
row,Structure (SMILES),"activity change, negative = inhibition"
21,c1ccc(-c2csc(NNC3=NCCCCC3)n2)cc1,inactive: -2.99%
22,COc1ccc(/C(C)=N/NS(=O)(=O)c2cc(C)ccc2C)c(OC)c1,inconclusive: -55.1%
1,CN(c1cccc(NS(=O)(=O)c2cccc([N+](=O)[O-])c2)c1)S(C)(=O)=O,inconclusive: -46.4%
2,Cc1cccc(C)c1NC(=O)Cn1nnc(C(=O)Nc2ccc(F)cc2F)c1N,active: -64.6%
3,CN(C)c1ccc(/C=N/NC(=O)c2cnc3ccccc3c2)cc1,inconclusive: -53%
4,O=C(NCc1ccccc1)NS(=O)(=O)c1ccccc1Cl,inconclusive: -42.1%
5,COc1ccccc1NC(=O)c1oc2ccccc2c1NC(=O)C1CCCCC1,inactive: 2.81%
6,Cc1ccccc1-c1cc2nc(-c3ccc([N+](=O)[O-])cc3)cc(=O)n2[nH]1,inactive: -0.561%
7,NC(N)=Nc1nc(-c2ccccc2)c2ccccc2n1,active: -94.8%
8,Cc1ccc(C)c(N(C(=O)Cc2cccs2)C(C(=O)NC2CCCC2)c2ccc(C)o2)c1 (stereo unspecified),inconclusive: -56.3%
9,CCn1c(SCC(=O)Nc2cc(NC(C)=O)ccc2OC)nnc1-c1ccccn1,inconclusive: -44.8%
10,CCNC(=S)NNC(=O)c1ccc(OC)cc1,inactive: 3.68%
11,CCOc1cccc(C(=O)Nc2nccs2)c1,inactive: 74.3%
12,C=CCn1c(=O)c(C(=O)NCCc2ccccc2)c(O)c2ccccc21,inconclusive: -45.1%
13,COc1cccc(-c2noc(COc3ccccc3Cl)n2)c1,inactive: 42.8%
14,CN(C)C(=O)Oc1cccc(-c2cn3cc(Cl)ccc3n2)c1,inactive: -3.47%
15,CC(C)Oc1ccc(CCN=C(N)N=C(N)N)cc1Cl,inconclusive: -54.6%
16,CN(C)c1ccc(/C=C(/C(=O)c2ccc(Cl)cc2Cl)n2cncn2)cc1,inactive: -36.7%
17,O=C(CCNS(=O)(=O)c1ccc(Br)s1)N1CCN(c2ccccc2)CC1,inconclusive: -46.6%
18,COc1cc2c(cc1OC)C(c1ccc(-c3ccc(Cl)cc3Cl)o1)=NCC2,inconclusive: -54.1%
19,CCCCCCCNC(=O)CN1C(=O)CSc2ccc(S(=O)(=O)N3CCOCC3)cc21,inconclusive: 0%
20,O=C(N/N=C/c1ccsc1)c1ccc2c(c1)OCO2,inactive: 46.6%

# More records

row,Structure (SMILES),"activity change, negative = inhibition"
1,COc1ccc(-c2onc(C)c2C)cc1S(=O)(=O)NCC1CCN(Cc2cc(C)ccc2C)CC1,inconclusive: 0%
2,O=S(=O)(c1cccc2cccnc12)N1CCN(Cc2ccc3c(c2)OCO3)CC1,inconclusive: -49.5%
3,Cc1ccc(C)c(NC(=O)CSc2nc3c(oc4ccccc43)c(=O)n2-c2ccccc2)c1,inconclusive: -40.2%
4,C/C(Cc1ccccc1)=N\NC(=O)CNC(=O)c1ccc(Cl)cc1,inconclusive: -46.4%
5,CCCn1nc(NS(=O)(=O)c2ccccc2)c2cc3ccccc3nc21,inconclusive: -55.3%
6,O=C(Cn1c(=O)oc2cc(S(=O)(=O)N3CCCCC3)ccc21)NCc1ccc(Cl)cc1,inconclusive: -43.2%
7,CN(C(=O)c1cccc(NC(=O)Cc2ccc([N+](=O)[O-])cc2)c1)C1CCCCC1,inconclusive: -57.1%
8,CC(C)CN(C(=O)c1nn(C)c(=O)c2ccccc12)c1nc2ccccc2s1,inactive: -21.6%
9,Cc1ccc(CNC(=O)CCCn2c(=O)[nH]c3ccc(Br)cc3c2=O)cc1,inactive: 13%
10,COc1ccc2nc(C)cc(Nc3ccc(Cl)c(Cl)c3)c2c1,active: -106%
11,CCN(CC)CCCN(C(=O)c1ccco1)c1nc(-c2ccc(C)cc2)cs1,inconclusive: -50.4%
12,COCCNC(=O)CSC1=N/C(=C/c2ccc(Cl)c(Cl)c2)C(=O)N1c1ccccc1F,inconclusive: -54.3%
13,COc1ccc(N(C(=O)C2CCCCC2)C2C=CS(=O)(=O)C2)c(OC)c1 (stereo unspecified),inconclusive: -43.7%
14,COc1cccc(-c2c(-c3cc(OC)cc(OC)c3)n(C)c3ccc(-c4cccc5[nH]ccc45)cc23)c1,inactive: 28.1%
15,CCOc1ccc(CNC(=O)C(C)n2nc(C)c3c(C)n(-c4ccccc4)nc3c2=O)cc1 (stereo unspecified),inconclusive: -46%
16,CCc1nc2c(C#N)c(-c3ccc(Cl)cc3)ccn2n1,inconclusive: -50.3%
17,Cc1cc(Nc2ccc(N3CCOCC3)cc2)c2cccc(C)c2n1,inconclusive: -52.5%
18,NS(=O)(=O)c1ccc(N2CCN(CCOc3ccc(Cl)cc3)CC2)nc1,active: -84.2%
19,COc1cc(Cl)ccc1OCc1cc(C(=O)N2CCCCC2c2cccnc2)no1 (stereo unspecified),inconclusive: -47.3%
20,Cc1ccc(NC(=O)Cn2c(=O)n(CCC(=O)NCc3ccccc3Cl)c(=O)c3ccccc32)cc1,active: -86.1%
